From article PMC9388682, “Structural basis for cannabinoid-induced potentiation of alpha1-glycine receptors in lipid nanodiscs” (Nature Communications, 2022)
No constants are given. Whether binding was seen depends on the method and setting. Some binding calls cover weakened binding; strength is not graded here.

Target: zebrafish glycine receptor alpha1 (GlyRα1), full-length, homopentamer in asolectin nanodiscs (zebrafish) (UniProt O93430)
Assay: cryo-EM structure; purified GlyR in asolectin nanodiscs (MSP1E3D1), buffer A (200 mM NaCl, 20 mM HEPES pH 8.0); with or without 32 μM THC and 0, 0.1 or 1 mM glycine; Titan Krios 300 keV, RELION; homopentamer; both purified

binding: binds
B1: zebrafish glycine receptor alpha1 (GlyRα1), full-length, homopentamer in asolectin nanodiscs (receptor, UniProt O93430 25-444, looked up)
chain: ARKAASPMPPSEFLDKLMGKVSGYDARIRPNFKGPPVNVTCNIFINSFGSIAETTMDYRVNIFLRQQWNDPRLAYSEYPDDSLDLDPSMLDSIWKPDLFFANEKGANFHEVTTDNKLLRISKNGNVLYSIRITLVLACPMDLKNFPMDVQTCIMQLESFGYTMNDLIFEWDEKGAVQVADGLTLPQFILKEEKDLRYCTKHYNTGKFTCIEARFHLERQMGYYLIQMYIPSLLIVILSWVSFWINMDAAPARVGLGITTVLTMTTQSSGSRASLPKVSYVKAIDIWMAVCLLFVFSALLEYAAVNFIARQHKELLRFQRRRRHLKEDEAGDGRFSFAAYGMGPACLQAKDGMAIKGNNNNAPTSTNPPEKTVEEMRKLFISRAKRIDTVSRVAFPLVFLIFNIFYWITYKIIRSEDIHKQ
modifications: N-glycans at Asn62
notes: glycine receptor subunit alpha-1, zebrafish, codon-optimized full-length gene (NCBI NP_571477); residues of the models numbered as in UniProt O93430; Phe341-Lys394 (M3-M4 loop, ICD) not modelled in the structures; also called zebrafish homomeric GlyRα1; glycine α1 receptor
